Values quoted from earlier work, collected in patent US11555040B2, “Oxepinopyrazole derivatives as inhibitors of P13-kinase activity” (GLAXOSMITHKLINE INTELLECTUAL PROPERTY DEVELOPMENT LIMITED, priority 2017, dated 2023).
Where two headings read alike, the source gives them in different places. At least one compound was matched to its structure with a doubt left.

Experiments:
Class I PI3-kinases = settings: Fruman et al. 1998
neutrophils = settings: treatment of neutrophils; Thelen et al. 1994

SMILES | IC50 (Class I PI3-kinases; read-out: IC50 against each of the various Class I PI3-kinases) | effect on fMLP-induced respiratory burst response (neutrophils) | effect on neutrophil migration and superoxide release (neutrophil) | IC50 (Class I PI3-kinases; read-out: IC50 against each of these PI3-kinases)
COC[C@H]1OC(=O)c2coc3c2[C@@]1(C)C1=C(C3=O)[C@@H]2CCC(=O)[C@@]2(C)C[C@H]1OC(C)=O [wortmannin] | 0.001 to 0.01 µM | prevents the fMLP-induced respiratory burst response | block neutrophil migration and superoxide release | –
O=c1cc(N2CCOCC2)oc2c(-c3ccccc3)cccc12 [LY294002] | – | – | block neutrophil migration and superoxide release | 15 to 20 µM
